According to paper PMC3542011:
No constants are given. Whether binding was seen depends on the method and setting. In cells and extracts the contact can be indirect. Some results given as binding are weak or reduced against the parent protein; the word gives no strength. Tags and fused reporters may be left off the sequences shown.

Amino acid sequences for entries named in this document (tags omitted).
UniProt P14635: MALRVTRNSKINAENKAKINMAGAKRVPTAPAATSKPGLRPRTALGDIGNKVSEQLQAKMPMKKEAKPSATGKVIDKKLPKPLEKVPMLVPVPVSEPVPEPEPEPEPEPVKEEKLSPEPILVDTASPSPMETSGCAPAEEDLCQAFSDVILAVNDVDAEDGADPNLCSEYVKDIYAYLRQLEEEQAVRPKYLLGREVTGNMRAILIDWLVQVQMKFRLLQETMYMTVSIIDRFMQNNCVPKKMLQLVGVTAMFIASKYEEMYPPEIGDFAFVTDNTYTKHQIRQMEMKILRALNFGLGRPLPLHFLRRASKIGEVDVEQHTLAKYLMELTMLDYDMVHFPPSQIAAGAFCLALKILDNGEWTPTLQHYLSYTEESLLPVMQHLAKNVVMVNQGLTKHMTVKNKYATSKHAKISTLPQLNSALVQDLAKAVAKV

Molecular target: T1, Mitofusin 1 (human (endogenous in HeLa)) (UniProt Q8IWA4)
T1 sequence: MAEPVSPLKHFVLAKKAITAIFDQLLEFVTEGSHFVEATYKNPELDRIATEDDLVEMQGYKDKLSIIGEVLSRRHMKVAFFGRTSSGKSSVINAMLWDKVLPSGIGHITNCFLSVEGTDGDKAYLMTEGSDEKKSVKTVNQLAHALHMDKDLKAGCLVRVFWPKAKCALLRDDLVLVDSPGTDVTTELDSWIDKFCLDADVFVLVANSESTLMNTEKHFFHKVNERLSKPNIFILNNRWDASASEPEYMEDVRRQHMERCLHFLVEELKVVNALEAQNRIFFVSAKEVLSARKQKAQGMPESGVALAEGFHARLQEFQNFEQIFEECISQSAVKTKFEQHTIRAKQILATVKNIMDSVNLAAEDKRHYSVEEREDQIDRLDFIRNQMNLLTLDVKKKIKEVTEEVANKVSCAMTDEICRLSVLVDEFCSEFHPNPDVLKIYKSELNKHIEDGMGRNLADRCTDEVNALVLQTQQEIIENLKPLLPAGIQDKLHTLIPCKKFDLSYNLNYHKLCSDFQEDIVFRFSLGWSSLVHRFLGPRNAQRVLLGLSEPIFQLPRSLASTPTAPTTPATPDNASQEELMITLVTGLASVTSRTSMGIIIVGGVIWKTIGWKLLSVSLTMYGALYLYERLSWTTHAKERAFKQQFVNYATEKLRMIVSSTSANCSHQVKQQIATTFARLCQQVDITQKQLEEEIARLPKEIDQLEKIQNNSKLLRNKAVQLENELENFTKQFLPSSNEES
Test: co-IP; HeLa lysates immunoprecipitated with anti-Mfn1 antibody, as described for the cyclin B1 immunoprecipitates; immunoblot; G2/M cells obtained by taxol treatment for 12 h

binding: binds
Substance: cyclin B1 (from UniProt P14635 1-433)
